Measured values as given in PMC2291557.
No constants are given. Whether binding was seen depends on the method and setting. In cells and extracts the contact can be indirect. Some entries that bind do so weakly or less than the wild type. One block for each molecule: values may come before it.

The chains behind the UniProt entries cited, without tags or fusion partners.
UniProt P21807: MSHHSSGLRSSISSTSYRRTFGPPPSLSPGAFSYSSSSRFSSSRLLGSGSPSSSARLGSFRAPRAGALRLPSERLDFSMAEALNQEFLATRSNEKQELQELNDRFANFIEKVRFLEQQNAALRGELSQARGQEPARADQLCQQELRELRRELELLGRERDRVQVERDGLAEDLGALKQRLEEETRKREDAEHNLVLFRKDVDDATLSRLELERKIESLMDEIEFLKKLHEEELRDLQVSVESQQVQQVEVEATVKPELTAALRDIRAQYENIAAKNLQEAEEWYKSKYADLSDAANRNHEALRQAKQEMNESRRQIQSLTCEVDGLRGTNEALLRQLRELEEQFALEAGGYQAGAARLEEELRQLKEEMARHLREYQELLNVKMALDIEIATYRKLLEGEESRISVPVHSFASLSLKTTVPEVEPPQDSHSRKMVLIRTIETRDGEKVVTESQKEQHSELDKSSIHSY
UniProt P31000: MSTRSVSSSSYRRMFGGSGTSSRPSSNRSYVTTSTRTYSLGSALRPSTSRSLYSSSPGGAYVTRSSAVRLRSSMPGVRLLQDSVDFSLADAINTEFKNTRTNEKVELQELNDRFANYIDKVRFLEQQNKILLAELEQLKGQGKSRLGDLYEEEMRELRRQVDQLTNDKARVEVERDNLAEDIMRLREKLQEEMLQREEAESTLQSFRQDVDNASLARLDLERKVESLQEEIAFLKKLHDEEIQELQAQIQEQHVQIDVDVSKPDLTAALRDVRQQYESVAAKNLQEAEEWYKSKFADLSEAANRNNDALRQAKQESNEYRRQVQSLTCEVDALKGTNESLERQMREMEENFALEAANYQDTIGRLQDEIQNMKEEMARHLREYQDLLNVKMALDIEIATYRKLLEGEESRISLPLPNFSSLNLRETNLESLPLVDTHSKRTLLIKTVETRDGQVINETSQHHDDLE

Assays:
[1] = target: T1, Ndel1 (rat (endogenous in sciatic nerve and spinal cord)) (UniProt Q78PB6); assay: co-IP; spinal cord and nerve lysates; immunoprecipitation in both directions (Ndel1 and Peripherin); HA antibodies as control
T1 sequence: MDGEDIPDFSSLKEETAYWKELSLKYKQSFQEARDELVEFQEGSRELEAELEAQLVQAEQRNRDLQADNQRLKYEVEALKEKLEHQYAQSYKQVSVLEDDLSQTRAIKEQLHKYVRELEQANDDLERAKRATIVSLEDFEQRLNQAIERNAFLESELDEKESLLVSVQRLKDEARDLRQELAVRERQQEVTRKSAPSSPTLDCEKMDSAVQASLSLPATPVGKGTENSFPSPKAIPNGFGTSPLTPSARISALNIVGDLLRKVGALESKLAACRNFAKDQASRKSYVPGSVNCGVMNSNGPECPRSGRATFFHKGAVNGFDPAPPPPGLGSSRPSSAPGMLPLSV

[2] = target: T1, Ndel1 (rat (endogenous in sciatic nerve and spinal cord)); assay: co-IP; immunoprecipitation with Ndel1 antibodies from axonal cytoskeletal preparations from spinal cord, buffers without detergent; no antibodies and GFP antibodies as negative controls
[3] = target: T1, Ndel1 (rat (endogenous in sciatic nerve and spinal cord)); assay: co-IP; immunoprecipitation with Ndel1 antibodies from axoplasm of sciatic nerves isolated in detergent-free buffers (PBS or Tris-NaCl); non-injured, crushed and transected nerves; no antibodies and GFP antibodies as negative controls
[4] = target: T1, Ndel1 (rat (endogenous in sciatic nerve and spinal cord)); assay: co-IP; immunoprecipitation with Ndel1 antibodies from sciatic nerve soluble lysates (buffers without detergent), proximal and distal segments and non-injured contralateral side; two weeks after crush, 65 hours after transection
[5] = target: T1, Ndel1 (rat (endogenous in sciatic nerve and spinal cord)); assay: co-IP; immunoprecipitation with Ndel1 antibodies from sciatic nerve soluble lysates, proximal and distal segments 3-12 h after crush
[6] = target: Peripherin (rat (endogenous in spinal cord and nerves)) (UniProt P21807); assay: co-IP; spinal cord and nerve lysates; immunoprecipitation in both directions (Ndel1 and Peripherin); HA antibodies as control
[7] = target: T1, Ndel1 (rat (endogenous in sciatic nerve and spinal cord)); assay: co-IP; immunoprecipitation with Ndel1 antibodies from sciatic nerve soluble lysates (buffers without detergent), proximal and distal segments and non-injured contralateral side; two weeks after crush, 65 hours after transection; remark: listed apart in the source

binding [1]: no binding
Molecule: Peripherin (from UniProt P21807 1-468)

binding [2]: binds
Molecule: Vimentin full length (from UniProt P31000 1-466)
binding [3]: binds
binding [4]: binds
binding [5]: no binding (condition: 3-12 h after sciatic nerve crush)

binding [6]: no binding
B1: Ndel1 (protein, UniProt Q78PB6 1-345)
chain: T1 sequence

B2: Neurofilament light chain (protein, UniProt P19527 1-542)
chain: MSSFSYEPYFSTSYKRRYVETPRVHISSVRSGYSTARSAYSSYSAPVSSSLSVRRSYSSSSGSLMPSLENLDLSQVAAISNDLKSIRTQEKAQLQDLNDRFASFIERVHELEQQNKVLEAELLVLRQKHSEPSRFRALYEQEIRDLRLAAEDATNEKQALQGEREGLEETLRNLQARYEEEVLSREDAEGRLMEARKGADEAALARAELEKRIDSLMDEIAFLKKVHEEEIAELQAQIQYAQISVEMDVSSKPDLSAALKDIRAQYEKLAAKNMQNAEEWFKSRFTVLTESAAKNTDAVRAAKDEVSESRRLLKAKTLEIEACRGMNEALEKQLQELEDKQNADISAMQDTINKLENELRSTKSEMARYLKEYQDLLNVKMALDIEIAAYRKLLEGEETRLSFTSVGSITSGYSQSSQVFGRSAYSGLQSSSYLMSARAFPAYYTSHVQEEQSEVEETIEATKAEEAKDEPPSEGEAEEEEKEKEEGEEEEGAEEEEAAKDESEDAKEEEGGEGEEEDTKESEEEEKKEESAGEEQAAKKKD
binding [7]: binds
